Results as given in the supplement of paper PMC7666118.
Some of the results follow.

Sequences of proteins named here, by UniProt entry; tags and fusion partners are left off. A change or cut given only in a name is not applied to a line headed by its entry.
UniProt O60858: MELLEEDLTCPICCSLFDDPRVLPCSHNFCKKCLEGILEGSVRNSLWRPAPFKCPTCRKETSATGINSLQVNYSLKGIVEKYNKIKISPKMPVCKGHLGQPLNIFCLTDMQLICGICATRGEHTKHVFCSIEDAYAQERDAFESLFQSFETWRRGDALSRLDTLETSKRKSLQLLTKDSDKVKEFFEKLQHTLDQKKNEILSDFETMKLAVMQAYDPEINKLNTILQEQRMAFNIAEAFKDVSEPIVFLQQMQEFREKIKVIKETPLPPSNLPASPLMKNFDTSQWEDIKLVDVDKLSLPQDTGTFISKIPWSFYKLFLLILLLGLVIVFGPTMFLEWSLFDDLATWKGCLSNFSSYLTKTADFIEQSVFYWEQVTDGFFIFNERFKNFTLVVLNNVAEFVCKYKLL
UniProt P06753, whole entry: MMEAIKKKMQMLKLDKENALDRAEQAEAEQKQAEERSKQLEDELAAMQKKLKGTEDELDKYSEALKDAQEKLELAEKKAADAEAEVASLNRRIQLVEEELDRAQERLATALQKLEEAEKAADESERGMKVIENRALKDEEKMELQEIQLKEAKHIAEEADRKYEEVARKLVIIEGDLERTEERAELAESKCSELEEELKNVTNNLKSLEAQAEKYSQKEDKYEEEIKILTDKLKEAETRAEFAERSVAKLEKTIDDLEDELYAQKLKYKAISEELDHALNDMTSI
UniProt Q9NQ34: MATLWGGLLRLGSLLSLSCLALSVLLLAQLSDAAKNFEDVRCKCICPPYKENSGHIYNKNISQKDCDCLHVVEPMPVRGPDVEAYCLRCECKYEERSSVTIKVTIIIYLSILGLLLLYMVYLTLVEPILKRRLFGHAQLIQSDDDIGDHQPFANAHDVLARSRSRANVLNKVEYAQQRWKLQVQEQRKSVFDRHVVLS
UniProt O43617, whole entry: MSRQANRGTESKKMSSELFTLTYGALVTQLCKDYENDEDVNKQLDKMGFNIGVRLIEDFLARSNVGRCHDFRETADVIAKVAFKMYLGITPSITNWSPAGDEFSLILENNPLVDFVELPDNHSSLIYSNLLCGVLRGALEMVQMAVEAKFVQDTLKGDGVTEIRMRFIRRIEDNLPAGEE
UniProt Q96K49: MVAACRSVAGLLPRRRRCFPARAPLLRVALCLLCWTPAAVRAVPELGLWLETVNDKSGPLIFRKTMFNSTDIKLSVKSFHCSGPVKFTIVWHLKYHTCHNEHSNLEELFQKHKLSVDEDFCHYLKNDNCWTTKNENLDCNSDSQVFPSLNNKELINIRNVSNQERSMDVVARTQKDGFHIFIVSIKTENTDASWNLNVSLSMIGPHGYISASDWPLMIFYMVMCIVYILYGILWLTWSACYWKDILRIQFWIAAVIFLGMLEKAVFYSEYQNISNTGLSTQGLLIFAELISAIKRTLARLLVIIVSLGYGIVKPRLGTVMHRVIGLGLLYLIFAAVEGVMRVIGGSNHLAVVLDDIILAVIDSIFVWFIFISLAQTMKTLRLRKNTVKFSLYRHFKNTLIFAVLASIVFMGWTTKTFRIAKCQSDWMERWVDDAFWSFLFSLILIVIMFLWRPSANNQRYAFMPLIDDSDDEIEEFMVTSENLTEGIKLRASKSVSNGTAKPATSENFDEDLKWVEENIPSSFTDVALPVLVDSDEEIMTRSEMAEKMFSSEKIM
UniProt P29144: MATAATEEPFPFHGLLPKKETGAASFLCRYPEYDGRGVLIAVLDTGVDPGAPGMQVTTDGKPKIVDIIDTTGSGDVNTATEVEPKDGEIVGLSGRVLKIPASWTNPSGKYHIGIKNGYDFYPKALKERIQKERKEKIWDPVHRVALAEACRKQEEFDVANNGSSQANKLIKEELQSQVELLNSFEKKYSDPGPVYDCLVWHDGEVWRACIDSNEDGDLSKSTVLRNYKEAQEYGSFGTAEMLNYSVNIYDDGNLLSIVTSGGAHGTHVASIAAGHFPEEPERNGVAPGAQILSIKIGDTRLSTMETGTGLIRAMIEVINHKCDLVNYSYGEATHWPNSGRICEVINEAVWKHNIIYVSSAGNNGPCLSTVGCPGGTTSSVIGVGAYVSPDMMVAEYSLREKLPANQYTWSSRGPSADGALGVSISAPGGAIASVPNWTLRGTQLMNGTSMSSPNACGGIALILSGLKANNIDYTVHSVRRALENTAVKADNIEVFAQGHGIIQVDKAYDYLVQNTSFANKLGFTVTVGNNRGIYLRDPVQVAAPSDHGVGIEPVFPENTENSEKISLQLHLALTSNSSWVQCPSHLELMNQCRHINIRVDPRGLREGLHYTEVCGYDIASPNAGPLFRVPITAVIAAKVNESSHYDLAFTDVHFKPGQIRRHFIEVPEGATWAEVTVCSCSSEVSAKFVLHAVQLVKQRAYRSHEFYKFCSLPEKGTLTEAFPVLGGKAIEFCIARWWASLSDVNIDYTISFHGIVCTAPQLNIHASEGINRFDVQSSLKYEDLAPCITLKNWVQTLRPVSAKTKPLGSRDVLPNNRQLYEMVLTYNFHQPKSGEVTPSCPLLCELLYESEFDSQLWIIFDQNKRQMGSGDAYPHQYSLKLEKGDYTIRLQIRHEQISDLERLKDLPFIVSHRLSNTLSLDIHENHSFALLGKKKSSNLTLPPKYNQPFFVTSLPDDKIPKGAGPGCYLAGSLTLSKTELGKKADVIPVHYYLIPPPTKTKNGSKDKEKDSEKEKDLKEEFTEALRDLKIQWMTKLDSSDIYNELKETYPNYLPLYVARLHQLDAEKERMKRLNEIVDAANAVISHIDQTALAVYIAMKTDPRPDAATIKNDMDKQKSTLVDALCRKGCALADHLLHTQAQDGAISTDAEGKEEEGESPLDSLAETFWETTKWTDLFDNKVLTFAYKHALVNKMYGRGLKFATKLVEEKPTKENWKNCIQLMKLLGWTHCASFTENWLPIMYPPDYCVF
UniProt O94759, whole entry: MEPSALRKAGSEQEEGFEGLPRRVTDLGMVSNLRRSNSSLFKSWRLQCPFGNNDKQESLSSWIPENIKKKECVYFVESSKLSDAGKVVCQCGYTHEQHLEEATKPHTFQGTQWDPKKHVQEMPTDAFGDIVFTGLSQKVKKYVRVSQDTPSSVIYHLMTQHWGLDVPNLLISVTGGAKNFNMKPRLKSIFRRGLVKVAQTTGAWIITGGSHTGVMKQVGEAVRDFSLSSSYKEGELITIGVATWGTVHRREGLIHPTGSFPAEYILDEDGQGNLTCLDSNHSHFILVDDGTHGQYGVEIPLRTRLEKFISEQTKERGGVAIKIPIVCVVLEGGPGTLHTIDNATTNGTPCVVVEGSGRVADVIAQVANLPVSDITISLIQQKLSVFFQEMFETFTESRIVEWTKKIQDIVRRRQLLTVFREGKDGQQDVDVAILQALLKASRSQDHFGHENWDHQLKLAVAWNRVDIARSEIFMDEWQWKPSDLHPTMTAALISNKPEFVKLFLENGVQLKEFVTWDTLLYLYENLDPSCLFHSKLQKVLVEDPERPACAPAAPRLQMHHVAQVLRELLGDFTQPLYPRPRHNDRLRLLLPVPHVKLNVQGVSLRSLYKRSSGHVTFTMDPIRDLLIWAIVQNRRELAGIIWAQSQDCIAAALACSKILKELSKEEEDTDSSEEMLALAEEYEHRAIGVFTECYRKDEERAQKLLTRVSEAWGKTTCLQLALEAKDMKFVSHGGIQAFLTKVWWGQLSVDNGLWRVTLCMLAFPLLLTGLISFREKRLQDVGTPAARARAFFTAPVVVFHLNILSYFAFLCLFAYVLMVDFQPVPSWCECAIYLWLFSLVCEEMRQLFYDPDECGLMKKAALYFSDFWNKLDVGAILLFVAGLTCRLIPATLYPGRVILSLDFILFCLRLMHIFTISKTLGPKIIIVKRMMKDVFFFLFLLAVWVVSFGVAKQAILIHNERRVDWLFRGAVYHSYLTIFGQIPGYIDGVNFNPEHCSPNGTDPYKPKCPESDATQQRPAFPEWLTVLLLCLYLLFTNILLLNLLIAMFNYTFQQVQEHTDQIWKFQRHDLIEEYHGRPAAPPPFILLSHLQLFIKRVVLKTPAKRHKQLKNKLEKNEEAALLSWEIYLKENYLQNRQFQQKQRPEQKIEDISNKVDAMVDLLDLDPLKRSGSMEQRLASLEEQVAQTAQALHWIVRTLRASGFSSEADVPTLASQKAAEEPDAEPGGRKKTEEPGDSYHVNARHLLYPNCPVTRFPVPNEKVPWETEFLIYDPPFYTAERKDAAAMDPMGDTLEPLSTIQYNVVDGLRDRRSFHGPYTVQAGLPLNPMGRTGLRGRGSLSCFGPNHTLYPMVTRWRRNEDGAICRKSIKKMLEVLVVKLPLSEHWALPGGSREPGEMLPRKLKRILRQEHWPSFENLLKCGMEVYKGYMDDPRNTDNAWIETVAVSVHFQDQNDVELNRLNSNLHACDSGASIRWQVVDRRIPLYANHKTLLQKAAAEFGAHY
UniProt Q53HC9: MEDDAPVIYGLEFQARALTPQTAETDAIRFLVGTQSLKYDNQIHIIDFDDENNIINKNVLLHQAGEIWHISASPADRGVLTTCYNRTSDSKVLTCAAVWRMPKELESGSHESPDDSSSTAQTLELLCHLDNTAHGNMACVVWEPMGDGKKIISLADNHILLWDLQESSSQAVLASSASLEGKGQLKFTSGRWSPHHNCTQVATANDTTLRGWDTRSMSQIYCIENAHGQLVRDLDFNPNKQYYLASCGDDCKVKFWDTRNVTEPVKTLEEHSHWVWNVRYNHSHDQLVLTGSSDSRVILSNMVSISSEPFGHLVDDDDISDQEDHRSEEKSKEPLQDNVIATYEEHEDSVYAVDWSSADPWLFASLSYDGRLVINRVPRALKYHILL
UniProt Q9Y4K3: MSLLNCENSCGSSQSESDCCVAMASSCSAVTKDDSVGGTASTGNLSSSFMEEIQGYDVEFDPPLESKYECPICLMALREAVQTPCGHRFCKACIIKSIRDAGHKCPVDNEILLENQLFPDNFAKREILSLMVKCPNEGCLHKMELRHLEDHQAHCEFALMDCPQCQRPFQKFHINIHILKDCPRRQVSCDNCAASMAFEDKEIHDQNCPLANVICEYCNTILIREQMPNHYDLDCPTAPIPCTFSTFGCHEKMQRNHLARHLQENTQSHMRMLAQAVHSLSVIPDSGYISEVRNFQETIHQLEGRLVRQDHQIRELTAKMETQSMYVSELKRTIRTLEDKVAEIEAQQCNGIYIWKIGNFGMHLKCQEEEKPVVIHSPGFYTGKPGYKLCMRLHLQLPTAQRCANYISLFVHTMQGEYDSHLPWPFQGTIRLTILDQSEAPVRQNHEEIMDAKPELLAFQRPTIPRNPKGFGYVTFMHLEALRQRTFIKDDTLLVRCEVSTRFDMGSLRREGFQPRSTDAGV
UniProt P55327: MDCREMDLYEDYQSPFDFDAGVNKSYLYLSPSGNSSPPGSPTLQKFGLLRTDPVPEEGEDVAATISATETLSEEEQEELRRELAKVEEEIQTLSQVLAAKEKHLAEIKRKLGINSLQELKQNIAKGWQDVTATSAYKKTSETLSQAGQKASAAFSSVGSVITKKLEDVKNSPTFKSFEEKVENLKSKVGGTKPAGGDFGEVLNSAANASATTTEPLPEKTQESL
UniProt O14524: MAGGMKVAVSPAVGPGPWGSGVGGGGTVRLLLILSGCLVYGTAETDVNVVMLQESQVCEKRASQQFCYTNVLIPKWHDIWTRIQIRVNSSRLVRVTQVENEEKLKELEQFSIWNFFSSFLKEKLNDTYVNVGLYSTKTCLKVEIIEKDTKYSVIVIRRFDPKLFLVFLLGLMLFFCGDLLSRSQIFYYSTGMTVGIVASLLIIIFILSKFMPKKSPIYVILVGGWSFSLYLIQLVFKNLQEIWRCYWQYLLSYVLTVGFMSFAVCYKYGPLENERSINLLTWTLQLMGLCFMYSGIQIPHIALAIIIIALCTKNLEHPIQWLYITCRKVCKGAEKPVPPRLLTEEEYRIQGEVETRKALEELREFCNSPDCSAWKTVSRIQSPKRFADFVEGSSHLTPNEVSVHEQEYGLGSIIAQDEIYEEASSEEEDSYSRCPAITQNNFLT
UniProt O43399: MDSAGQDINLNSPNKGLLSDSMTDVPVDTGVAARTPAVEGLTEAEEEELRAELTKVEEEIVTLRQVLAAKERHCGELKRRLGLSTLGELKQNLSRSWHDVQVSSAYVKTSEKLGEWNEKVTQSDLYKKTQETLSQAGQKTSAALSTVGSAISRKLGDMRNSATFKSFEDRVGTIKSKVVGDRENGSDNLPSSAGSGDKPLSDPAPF
UniProt Q9BV81: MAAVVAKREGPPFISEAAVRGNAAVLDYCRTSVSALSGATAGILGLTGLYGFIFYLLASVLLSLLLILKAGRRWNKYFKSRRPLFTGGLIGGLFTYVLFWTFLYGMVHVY
UniProt Q15631: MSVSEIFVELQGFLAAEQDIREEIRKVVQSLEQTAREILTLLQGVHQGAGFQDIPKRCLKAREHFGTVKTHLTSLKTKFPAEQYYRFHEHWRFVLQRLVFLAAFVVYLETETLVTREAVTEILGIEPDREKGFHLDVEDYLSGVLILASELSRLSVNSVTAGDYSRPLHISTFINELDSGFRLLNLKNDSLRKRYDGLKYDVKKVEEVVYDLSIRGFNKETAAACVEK

Compound: COc1ccc(Cn2ccc3cc(C)c(C(=O)NO)cc32)cc1
Assay: dose-dependent thermal stabilisation call (2D-TPP, DLPTP, 10% FDR) (binary (1 = stabilised)); higher = stabilised by the compound
Settings: system: HL-60 intact cells; concentration range 0.04-10 µM
Method: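 2D thermal proteome profiling in intact HL-60 cells treated with BRD-3811 (0, 0.04, 0.29, 2, 10 uM) for 90 min at 37 C, then heated 3 min at one of 12 temperatures (42-63.9 C). Soluble protein was quantified by TMT10 MS. The value is the DLPTP call of the paper: dose-dependent thermal stabilisation over all temperatures at 10% FDR (F-test of a dose-response against a flat model); one experiment, one call per tested protein.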

Row | Target | dose-dependent thermal stabilisation call
1 | TM9SF1 (UniProt O15321) | inactive: 0
2 | TPX2 (UniProt Q9ULW0) | active: 1
3 | TPMT (UniProt P51580) | inactive: 0
4 | TP53BP2 (UniProt Q13625) | inactive: 0
5 | TOR1AIP1 (UniProt Q5JTV8) | inactive: 0
6 | TRUB2 (UniProt O95900) | inactive: 0
7 | TRIM21 (UniProt P19474) | inactive: 0
8 | TRIM13 (UniProt O60858) | inactive: 0
9 | TPM3 (UniProt P06753) | inactive: 0
10 | TMEM9B (UniProt Q9NQ34) | inactive: 0
11 | TRAPPC3 (UniProt O43617) | inactive: 0
12 | TRIP6 (UniProt Q15654) | inactive: 0
13 | TMEM173 (UniProt Q86WV6) | inactive: 0
14 | TOP1 (UniProt P11387) | inactive: 0
15 | TSC22D1 (UniProt Q15714) | inactive: 0
16 | TMEM87B (UniProt Q96K49) | inactive: 0
17 | TTC17 (UniProt Q96AE7) | inactive: 0
18 | TMEM161B (UniProt Q8NDZ6) | inactive: 0

Row | Target | dose-dependent thermal stabilisation call
19 | TPP2 (UniProt P29144) | inactive: 0
20 | TMEM186 (UniProt Q96B77) | inactive: 0
21 | TRAPPC6B (UniProt Q86SZ2) | inactive: 0
22 | TLN2 (UniProt Q9Y4G6) | inactive: 0
23 | TRPM2 (UniProt O94759) | inactive: 0
24 | TRAPPC10 (UniProt P48553) | inactive: 0
25 | TSSC1 (UniProt Q53HC9) | inactive: 0
26 | TRAF6 (UniProt Q9Y4K3) | inactive: 0
27 | TPD52 (UniProt P55327) | inactive: 0
28 | THOC2 (UniProt Q8NI27) | inactive: 0
29 | TRIP4 (UniProt Q15650) | inactive: 0
30 | TMEM20 (UniProt Q2M3R5) | inactive: 0
31 | TNFRSF8 (UniProt P28908) | inactive: 0
32 | TMEM194A (UniProt O14524) | inactive: 0
33 | TM9SF3 (UniProt Q9HD45) | inactive: 0
34 | TPD52L2 (UniProt O43399) | inactive: 0
35 | TMEM93 (UniProt Q9BV81) | inactive: 0
36 | TSN (UniProt Q15631) | inactive: 0

Rewritten with tabs: part of the list above.
Row	Target	dose-dependent thermal stabilisation call
25	TSSC1 (UniProt Q53HC9)	inactive: 0
32	TMEM194A (UniProt O14524)	inactive: 0
